# Measurements reported in US20050031700A1, “Pharmaceutical formulation and method for treating acid-caused gastrointestinal disorders” (Sanatarus, Inc., priority 2003, published 2005).
# At least one compound was matched to its structure with a doubt left.
# Assay: In vitro recovery study: adherence of OSB-PFS to an 18 French gastric sump tube
# Type: physicochemical
structure (smiles),measurement,value
COc1ccc2[nH]c([S+]([O-])Cc3ncc(C)c(OC)c3C)nc2c1 (stereo not shown) [omeprazole],adherence to typical administration devices (in words),does not significantly adhere
